Experimental data taken from the supplement of paper PMC11732987, “Enantioselective OTUD7B fragment discovery through chemoproteomics screening and high-throughput optimisation” (Communications Chemistry, 2025).
Some of the results follow. The data scatter; read single values as rough.

Sequences of proteins named here, by UniProt entry; tags and fusion partners are left off. A change or cut given only in a name is not applied to a line headed by its entry. Residues count along the entry.
UniProt Q05655, 505-524: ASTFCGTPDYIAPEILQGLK
UniProt P78527, whole entry, looked up: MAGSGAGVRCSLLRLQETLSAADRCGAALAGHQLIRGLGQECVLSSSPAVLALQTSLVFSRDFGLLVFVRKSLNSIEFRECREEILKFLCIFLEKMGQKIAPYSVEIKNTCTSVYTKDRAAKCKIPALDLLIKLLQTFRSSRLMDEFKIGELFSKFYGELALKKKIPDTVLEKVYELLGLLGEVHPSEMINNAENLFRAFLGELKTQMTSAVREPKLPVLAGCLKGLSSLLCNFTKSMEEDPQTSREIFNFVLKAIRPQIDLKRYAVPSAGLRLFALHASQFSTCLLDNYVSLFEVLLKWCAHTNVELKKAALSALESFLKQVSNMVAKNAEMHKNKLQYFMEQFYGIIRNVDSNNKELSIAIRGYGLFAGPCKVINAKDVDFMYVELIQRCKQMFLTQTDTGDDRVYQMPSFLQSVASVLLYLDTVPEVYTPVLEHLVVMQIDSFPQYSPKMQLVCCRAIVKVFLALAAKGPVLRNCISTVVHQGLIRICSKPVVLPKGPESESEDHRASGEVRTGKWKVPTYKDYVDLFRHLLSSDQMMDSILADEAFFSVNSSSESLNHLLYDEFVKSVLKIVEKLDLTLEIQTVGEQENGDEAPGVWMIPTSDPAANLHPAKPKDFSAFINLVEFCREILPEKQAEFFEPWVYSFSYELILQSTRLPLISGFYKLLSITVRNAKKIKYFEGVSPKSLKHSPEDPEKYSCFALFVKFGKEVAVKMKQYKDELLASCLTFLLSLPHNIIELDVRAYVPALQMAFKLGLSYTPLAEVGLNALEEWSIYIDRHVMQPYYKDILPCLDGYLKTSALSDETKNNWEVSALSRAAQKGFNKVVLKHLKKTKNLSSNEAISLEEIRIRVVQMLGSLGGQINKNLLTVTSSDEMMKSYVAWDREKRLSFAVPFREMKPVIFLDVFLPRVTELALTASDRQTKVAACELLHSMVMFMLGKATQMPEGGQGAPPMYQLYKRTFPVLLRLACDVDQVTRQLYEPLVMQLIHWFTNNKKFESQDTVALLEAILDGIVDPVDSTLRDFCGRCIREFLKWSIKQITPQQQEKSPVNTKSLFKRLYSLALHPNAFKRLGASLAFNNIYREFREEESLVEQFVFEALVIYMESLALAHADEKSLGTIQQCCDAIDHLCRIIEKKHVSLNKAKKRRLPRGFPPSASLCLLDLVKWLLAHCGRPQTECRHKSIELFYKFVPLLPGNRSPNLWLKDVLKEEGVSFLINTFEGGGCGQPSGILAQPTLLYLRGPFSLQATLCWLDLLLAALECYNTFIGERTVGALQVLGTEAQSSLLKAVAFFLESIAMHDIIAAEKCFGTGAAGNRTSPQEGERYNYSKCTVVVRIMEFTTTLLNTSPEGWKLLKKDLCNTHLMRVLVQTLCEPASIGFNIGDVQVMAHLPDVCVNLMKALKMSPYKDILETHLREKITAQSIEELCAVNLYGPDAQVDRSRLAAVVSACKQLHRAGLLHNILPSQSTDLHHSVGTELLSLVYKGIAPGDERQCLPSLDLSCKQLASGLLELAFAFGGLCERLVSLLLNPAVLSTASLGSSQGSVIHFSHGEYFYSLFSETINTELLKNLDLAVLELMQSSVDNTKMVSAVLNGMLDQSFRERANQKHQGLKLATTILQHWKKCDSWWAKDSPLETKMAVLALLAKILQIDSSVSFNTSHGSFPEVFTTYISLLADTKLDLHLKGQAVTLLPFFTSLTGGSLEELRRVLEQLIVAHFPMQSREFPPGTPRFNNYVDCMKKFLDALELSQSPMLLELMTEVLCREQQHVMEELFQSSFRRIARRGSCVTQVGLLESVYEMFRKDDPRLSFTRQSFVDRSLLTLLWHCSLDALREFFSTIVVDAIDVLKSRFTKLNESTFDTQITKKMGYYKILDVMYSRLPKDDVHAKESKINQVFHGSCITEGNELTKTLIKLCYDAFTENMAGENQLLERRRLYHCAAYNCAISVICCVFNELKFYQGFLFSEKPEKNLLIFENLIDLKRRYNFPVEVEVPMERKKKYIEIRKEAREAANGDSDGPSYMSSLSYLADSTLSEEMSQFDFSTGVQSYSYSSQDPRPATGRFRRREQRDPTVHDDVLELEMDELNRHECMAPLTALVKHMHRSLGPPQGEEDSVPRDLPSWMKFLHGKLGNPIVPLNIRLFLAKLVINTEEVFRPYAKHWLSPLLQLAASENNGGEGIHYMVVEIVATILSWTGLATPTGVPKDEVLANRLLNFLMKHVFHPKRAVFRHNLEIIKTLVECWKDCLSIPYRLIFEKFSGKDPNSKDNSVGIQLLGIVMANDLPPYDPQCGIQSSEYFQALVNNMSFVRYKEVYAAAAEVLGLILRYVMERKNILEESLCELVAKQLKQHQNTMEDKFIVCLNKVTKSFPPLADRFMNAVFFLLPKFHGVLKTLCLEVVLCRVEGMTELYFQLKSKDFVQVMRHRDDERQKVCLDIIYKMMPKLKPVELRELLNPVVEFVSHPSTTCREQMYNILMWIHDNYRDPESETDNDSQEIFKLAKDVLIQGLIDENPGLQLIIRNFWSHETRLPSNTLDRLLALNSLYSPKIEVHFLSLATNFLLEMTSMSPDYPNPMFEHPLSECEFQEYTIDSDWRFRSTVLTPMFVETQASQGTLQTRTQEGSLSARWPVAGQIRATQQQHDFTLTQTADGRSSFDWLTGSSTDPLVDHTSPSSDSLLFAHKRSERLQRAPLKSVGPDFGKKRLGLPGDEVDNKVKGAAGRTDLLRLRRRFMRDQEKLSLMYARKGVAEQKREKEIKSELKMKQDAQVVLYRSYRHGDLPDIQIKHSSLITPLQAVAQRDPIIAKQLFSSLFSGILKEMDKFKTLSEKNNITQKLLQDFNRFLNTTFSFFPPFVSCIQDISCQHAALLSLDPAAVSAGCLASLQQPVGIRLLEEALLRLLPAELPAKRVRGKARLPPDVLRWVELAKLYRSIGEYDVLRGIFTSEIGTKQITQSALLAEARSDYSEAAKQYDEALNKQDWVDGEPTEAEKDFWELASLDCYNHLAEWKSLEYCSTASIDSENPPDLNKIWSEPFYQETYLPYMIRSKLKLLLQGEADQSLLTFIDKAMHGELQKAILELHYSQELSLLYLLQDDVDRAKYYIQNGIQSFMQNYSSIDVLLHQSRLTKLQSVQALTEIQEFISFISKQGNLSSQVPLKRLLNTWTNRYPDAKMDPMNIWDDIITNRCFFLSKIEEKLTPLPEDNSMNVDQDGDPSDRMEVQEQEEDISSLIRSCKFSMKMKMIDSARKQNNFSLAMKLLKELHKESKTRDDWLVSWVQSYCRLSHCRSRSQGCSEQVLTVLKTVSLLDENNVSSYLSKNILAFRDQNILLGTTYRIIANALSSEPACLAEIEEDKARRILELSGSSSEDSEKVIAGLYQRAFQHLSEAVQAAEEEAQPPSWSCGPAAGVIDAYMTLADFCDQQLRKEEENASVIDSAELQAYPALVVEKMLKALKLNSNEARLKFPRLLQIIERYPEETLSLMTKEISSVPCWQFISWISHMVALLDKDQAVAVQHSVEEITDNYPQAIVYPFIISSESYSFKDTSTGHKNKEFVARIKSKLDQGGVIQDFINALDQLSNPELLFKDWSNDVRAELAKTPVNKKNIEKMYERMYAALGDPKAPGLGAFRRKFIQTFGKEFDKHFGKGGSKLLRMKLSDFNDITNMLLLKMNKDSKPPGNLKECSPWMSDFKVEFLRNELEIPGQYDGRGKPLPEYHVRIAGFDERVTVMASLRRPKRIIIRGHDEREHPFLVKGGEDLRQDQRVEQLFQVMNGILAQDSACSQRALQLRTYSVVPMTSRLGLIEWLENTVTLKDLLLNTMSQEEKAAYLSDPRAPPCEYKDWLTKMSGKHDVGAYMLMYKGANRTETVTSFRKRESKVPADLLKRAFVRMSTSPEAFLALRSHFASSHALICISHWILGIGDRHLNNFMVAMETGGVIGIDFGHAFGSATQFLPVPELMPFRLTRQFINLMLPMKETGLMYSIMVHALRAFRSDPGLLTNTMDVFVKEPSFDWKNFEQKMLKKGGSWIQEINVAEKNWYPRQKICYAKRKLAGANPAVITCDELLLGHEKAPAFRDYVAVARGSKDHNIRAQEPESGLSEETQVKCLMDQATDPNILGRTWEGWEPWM
UniProt P24723, whole entry, looked up: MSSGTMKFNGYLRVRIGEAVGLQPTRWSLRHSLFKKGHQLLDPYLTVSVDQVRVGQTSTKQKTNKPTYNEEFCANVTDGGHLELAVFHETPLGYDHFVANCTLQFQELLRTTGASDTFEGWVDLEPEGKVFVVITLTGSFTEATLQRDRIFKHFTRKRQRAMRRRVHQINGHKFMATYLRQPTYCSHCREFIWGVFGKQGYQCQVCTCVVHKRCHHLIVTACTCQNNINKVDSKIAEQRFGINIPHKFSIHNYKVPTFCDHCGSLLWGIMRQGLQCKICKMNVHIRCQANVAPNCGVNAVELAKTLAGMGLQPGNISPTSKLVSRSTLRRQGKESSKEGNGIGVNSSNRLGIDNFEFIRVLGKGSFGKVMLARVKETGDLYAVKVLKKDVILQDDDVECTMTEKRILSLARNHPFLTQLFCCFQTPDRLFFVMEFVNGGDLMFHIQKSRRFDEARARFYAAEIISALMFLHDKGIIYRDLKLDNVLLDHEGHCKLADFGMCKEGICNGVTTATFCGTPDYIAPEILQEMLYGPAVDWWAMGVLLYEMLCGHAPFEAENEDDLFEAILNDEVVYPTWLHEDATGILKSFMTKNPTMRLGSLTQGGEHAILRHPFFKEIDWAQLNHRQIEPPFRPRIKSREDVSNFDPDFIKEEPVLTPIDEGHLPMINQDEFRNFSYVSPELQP
UniProt O43172: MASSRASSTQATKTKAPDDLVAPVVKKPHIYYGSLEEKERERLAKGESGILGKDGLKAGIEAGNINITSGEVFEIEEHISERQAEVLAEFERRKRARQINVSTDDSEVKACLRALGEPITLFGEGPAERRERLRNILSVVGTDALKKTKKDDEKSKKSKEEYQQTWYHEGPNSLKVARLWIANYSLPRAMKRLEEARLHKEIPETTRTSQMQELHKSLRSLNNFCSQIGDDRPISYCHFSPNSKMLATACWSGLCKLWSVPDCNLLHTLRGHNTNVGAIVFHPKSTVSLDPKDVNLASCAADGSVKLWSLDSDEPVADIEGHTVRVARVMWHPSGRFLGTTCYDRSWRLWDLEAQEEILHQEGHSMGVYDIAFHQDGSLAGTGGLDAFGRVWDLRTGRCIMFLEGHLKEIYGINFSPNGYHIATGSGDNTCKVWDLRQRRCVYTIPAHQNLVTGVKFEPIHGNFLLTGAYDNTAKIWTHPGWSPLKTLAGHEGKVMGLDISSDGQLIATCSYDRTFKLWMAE
UniProt Q5H9R7, 822-843: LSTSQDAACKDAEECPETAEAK
UniProt O94906: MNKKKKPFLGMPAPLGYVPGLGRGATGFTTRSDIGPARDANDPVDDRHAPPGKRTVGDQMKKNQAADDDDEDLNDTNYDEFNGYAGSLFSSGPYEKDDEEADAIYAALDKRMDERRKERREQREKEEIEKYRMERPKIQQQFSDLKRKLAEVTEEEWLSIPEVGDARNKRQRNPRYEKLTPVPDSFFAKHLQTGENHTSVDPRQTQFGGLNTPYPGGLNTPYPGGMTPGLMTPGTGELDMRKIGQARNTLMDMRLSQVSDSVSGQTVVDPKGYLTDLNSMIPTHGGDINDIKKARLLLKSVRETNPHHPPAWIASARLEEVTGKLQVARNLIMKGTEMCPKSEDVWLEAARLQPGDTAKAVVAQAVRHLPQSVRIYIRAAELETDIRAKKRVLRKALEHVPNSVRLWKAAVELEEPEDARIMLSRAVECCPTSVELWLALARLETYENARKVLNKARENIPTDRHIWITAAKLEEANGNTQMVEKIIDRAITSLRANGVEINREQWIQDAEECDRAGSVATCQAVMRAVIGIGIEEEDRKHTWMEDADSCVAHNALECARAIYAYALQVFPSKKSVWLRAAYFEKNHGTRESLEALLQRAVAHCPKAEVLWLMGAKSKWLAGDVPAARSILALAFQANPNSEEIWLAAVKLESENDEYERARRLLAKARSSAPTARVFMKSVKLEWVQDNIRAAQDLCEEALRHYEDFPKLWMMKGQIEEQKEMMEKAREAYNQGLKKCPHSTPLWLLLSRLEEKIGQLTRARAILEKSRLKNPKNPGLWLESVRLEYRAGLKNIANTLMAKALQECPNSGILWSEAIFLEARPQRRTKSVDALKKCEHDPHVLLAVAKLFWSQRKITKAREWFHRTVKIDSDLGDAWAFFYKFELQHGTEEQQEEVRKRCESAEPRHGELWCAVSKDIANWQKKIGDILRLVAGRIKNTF

Compound: ClCC(=O)N[C@@H]1CCCc2ccccc12
Experiment: log2 mean competition ratio of IA-DTB cysteine labelling (DMSO/compound) (log2 ratio); higher = stronger cysteine engagement by compound
Settings: 50 µM; treatment time: 4 h; cell line lysate: HEK293T
Procedure: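 IA-DTB competitive cysteine chemoproteomics in HEK293T RIPA lysate. Lysates were treated with compound 29 or 30 at 50 or 200 µM for 4 h, then IA-DTB (500 µM, 1 h), trypsin-digested, NeutrAvidin-enriched and analysed by diaPASEF. Competition ratio = intensity DMSO / intensity compound (n=4 treated, n=64 DMSO); binding: mean log2 CR ≥ 1 and p ≤ 0.05 plus QC filters. Target is the cysteine site.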

Row | Target | log2 mean competition ratio
1 | PRKCD C509 (UniProt Q05655) | 0.281
2 | PRKDC C3293 (UniProt P78527) | 0.132
3 | PRKCH C501 (UniProt P24723) | -0.0884
4 | PRKDC C3837 (UniProt P78527) | 0.0406
5 | POP1 C777 (UniProt Q99575) | -0.271
6 | PRKRA C163 (UniProt O75569) | 0.0116
7 | PPARGC1B C316 (UniProt Q86YN6) | 0.314
8 | PRPF4 C441 (UniProt O43172) | 0.163
9 | PRPF4 C299 (UniProt O43172) | -0.219
10 | PPP2R1A C329 (UniProt P30153) | 0.0806
11 | PRKDC C974 (UniProt P78527) | -0.0371
12 | POLR2A C233 | 0.674
13 | POLR3A C767 (UniProt O14802) | 0.075
14 | PPP6R3_(C830,C830,C836,C836) (UniProt Q5H9R7) | -0.413
15 | PRPF6 C339 (UniProt O94906) | -0.0639
16 | PRPS1 C265 | 0.00111
17 | POLRMT C94 (UniProt O00411) | -0.199
18 | PRKDC C373 (UniProt P78527) | 0.214
19 | PPP6R3 C500 (UniProt Q5H9R7) | 0.56
20 | PPP1R3D C184 (UniProt O95685) | 0.147

Same assay, conditions: 200 µM; treatment time: 4 h; cell line lysate: HEK293T

Row | Target | log2 mean competition ratio
21 | PRKCD C509 (UniProt Q05655) | -0.12
22 | PRKDC C3293 (UniProt P78527) | -0.22
23 | PRKCH C501 (UniProt P24723) | 0.216
24 | PRKDC C3837 (UniProt P78527) | 0.54
25 | POP1 C777 (UniProt Q99575) | 0.241
26 | PRKRA C163 (UniProt O75569) | 0.0424
27 | PPARGC1B C316 (UniProt Q86YN6) | 0.185
28 | PRPF4 C441 (UniProt O43172) | -0.0477
29 | PRPF4 C299 (UniProt O43172) | -0.0818
30 | PPP2R1A C329 (UniProt P30153) | -0.488
31 | PRKDC C974 (UniProt P78527) | -0.052
32 | POLR2A C233 | -0.0244
33 | POLR3A C767 (UniProt O14802) | 0.0201
34 | PPP6R3_(C830,C830,C836,C836) (UniProt Q5H9R7) | 0.232
35 | PRPF6 C339 (UniProt O94906) | 0.0226
36 | PRPS1 C265 | -0.268
37 | POLRMT C94 (UniProt O00411) | -0.18
38 | PRKDC C373 (UniProt P78527) | -0.235
39 | PPP6R3 C500 (UniProt Q5H9R7) | 0.272
40 | PPP1R3D C184 (UniProt O95685) | -0.208
